# Measured values reported in US9492437B2, “Otamixaban for treatment of elderly and renal impaired non-ST elevation myocardial infarction patients” (SANOFI, priority 2009, dated 2016).
# At least one read-out could not be matched to a standard name with certainty.
# Assay: subgroup pharmacokinetic analysis (concentration of otamixaban)
# Assay type: in vivo, human
# Conditions: in general, dose groups other than dose 4
smiles,measurement,value
"COC(=O)C(Cc1cccc(C(=N)N)c1)[C@@H](C)NC(=O)c1ccc(-c2cc[n+]([O-])cc2)cc1 (mixture of isomers) [Otamixaban, (2R,3R)-2-(3-Carbamimidoyl-benzyl)-3-[4-(1-oxy-pyridin-4-yl)benzoylamino]-butyric acid methyl ester]","impact of age, creatinine clearance level or body weight on the concentration of otamixaban",no impact
